# Results as given in US8685695B2, “Method for producing a mixture of bacteriophages and the use thereof in the therapy of antibiotic-resistant staphylococci” (priority 2008, dated 2014).
# At least one compound was matched to its structure with a doubt left.
# What was measured:
# [1] = system: S. aureus DSM 18421; assay: Sensitivity of the strain to bacteriophages and antibiotics; assay type: cell-based, Staphylococcus aureus
# [2] = system: S. aureus M.06.02.0071; assay: as above; assay type: cell-based, Staphylococcus aureus
smiles,measurement,setting,value
"CCC[C@@H]1C[C@@H](C(=O)N[C@@H]([C@H]2O[C@H](SC)[C@H](O)[C@@H](O)[C@H]2O)[C@H](C)Cl)N(C)C1 [Clindamycin, clindamycin]","Sensitivity of the strain, in words",[1],sensitive
same,"Sensitivity of the strain, in words",[2],sensitive
